Experimental data from PMC10163288.
Some of the results follow.

B1: il10ra_site1_normal_mot_HHH_b1_02062_000000185_0001_1_20_H_._HHH_b2_01431_0001_0000400048_0000001_0_af2pred_0001 (protein)
chain: SSSSEEAYKLSREAAELLADGNPEEALRLLEEAEEIAEEKGNLAILHALEFLYEHAKRLLESSSS
B2: il10ra_site1_normal_mot_HHH_b1_05185_000000011_0001_22_39_H_._HHH_b2_07609_af2_0001_0000100009_0000001_0_af2pred_0001 (protein)
chain: SSSSNELAKRAARFLVKAAKQLEDPEKVRLALRIALHAAKEANDEELQEEIERLLEELEKSSSSS
B3: il10ra_site1_sap_18_mot_HHH_b2_03913_af2_000000094_0001_1_19_H_._HHH_b2_01317_0001_0000200014_0000001_0_0001 (protein)
chain: SSSSSSDLEELLEELEELVEEGDSERALRLAIELIRLAFQRRDPEILRAVWELVKRLDSSSSSSS
B4: il10ra_site1_sap_23_mot_HHH_b2_03220_af2_000000223_0001_23_40_H_._HHH_b1_03860_0001_0000400043_0000001_0_0001_af2pred_0001 (protein)
chain: SSSSDAEEEVEELLKELEELVKRNDEEERVEVAFLIARLIQELGDPELAEELSRILVEFLQSSSS
B5: il10ra_site1_normal_mot_HHH_b2_01235_000000294_0001_1_18_H_._HHH_b1_05611_0001_0000600040_0000001_0_af2pred_0001 (protein)
chain: SSSSDVTERVLELLREALKLLKDGNPEEAREVLEEAEELAEEGNDELLRHLIEFAQEEIDSSSSS
B6: il10ra_site1_sap_8_mot_HHH_b1_07527_000000076_0001_1_15_H_._HHH_b2_05696_0001_0000500030_0000002_0_0001 (protein)
chain: SSDRAARYLLRQATRAARLAIENNDPERAEHAVENLRELAEQHNDEEAKEIAEELREQVEELKSS
B7: il10ra_site1_sap_23_mot_3fe176d385def974ec4a624ed76b8be1_0001_af2_000000291_0001_1_12_H_._HHH_b1_01093_0001_0000300041_0000002_0_0001 (protein)
chain: SSSSSSDEEEVEELLEEAKEIEDREELVEVLFRALEIAIQAQDPELLRLVWKVFKKLVSSSSSSS
B8: il10ra_site1_normal_mot_HHH_b2_02354_af2_000000157_0001_40_56_H_._HHH_b1_03315_af2_0001_0000100009_0000002_0 (protein)
chain: SSSSREEVSQLIEEILRLIKEGDEEEARELLEEAKRIAEELGDENAKFILESLEKALEQLFSSSS
B9: il10ra_site1_normal_mot_HHH_b2_07145_000000158_0001_24_40_H_._HHH_b2_07531_0001_0000200038_0000002_0 (protein)
chain: SSSSEEFFEKIKRIIEEAQELFEEGNEEEAERVLEEAAKEAKELNNFAALWSLEHLLRALSSSSS
B10: il10ra_site1_normal_mot_HHH_b2_06767_000000020_0001_41_56_H_._HHH_b2_06012_0001_0000400029_0000003_0_af2pred_0001 (protein)
chain: SSSSSHHEAAKLLLLVARAADEGDEELLEELEKELRELLKKLDDEKARLAVRFALWLIEALSSSS
B11: il10ra_site1_normal_mot_HHH_b1_05326_000000242_0001_1_20_H_._HHH_b2_05586_af2_0001_0000300014_0000001_0 (protein)
chain: SSSSSNEEALRLSVHAFRALLRGNPEEAQELLEEALEIAEKAGNERLARQIEELLKAVESNSSSS
B12: il10ra_site1_normal_mot_HHH_b2_02337_000000026_0001_38_52_H_._HHH_b2_07301_0001_0000200008_0000001_0 (protein)
chain: SSSSDRLEELLEELERALEEGDQEEFIELAQEVSRLAMELGDQEVLKEVWELVEEFRKLLSSSSS
B13: il10ra_site1_normal_mot_HHH_b1_01707_000000240_0001_1_17_H_._HHH_b1_05707_0001_0000100003_0000001_0_af2pred_0001 (protein)
chain: SSSSDSEEEAAKALLEAVKVAERLGDEELARLVLRLAERIVRLAGDEEVLEELEKLKEELSSSSS
B14: il10ra_site1_normal_mot_HHH_b2_02736_000000092_0001_22_38_H_._HHH_b1_04037_0001_0000200022_0000001_0 (protein)
chain: SSSSSEEHQELYELLREAIELRAEGNPEEAREVLEEAEELAREAGNENFEVQLRFLQREIDSSSS
B15: il10ra_site1_sap_20_mot_HHH_b2_00622_af2_000000153_0001_40_57_H_._HHH_b2_07209_0001_0000700039_0000002_0_0001 (protein)
chain: SSSSSDAAEESIRFMLKAARQLEDPEAARLAIRFAAALARDVNNEELLEEAEKLLEELRSSSSSS
B16: il10ra_site1_sap_23_mot_HHH_b2_04681_000000155_0001_43_57_H_._HHH_b2_02079_0001_0000500024_0000001_0_0001_af2pred_0001 (protein)
chain: SSSSDEEEQIIEEALRLAEERGDRETFLRLEASLKLARLANDPRALRALARLAERVLEELNSSSS
B17: il10ra_site1_normal_mot_HHH_b2_00984_000000042_0001_1_20_H_._046144532e059992a4c97ca66cd47cac_0001_0001_0000100001_0000001_0 (protein)
chain: DERLEEILEELKKSPDPEVREVVELLERLIEELGDPKKALQAAVRILLERGNAELLQILWEIIKK
B18: il10ra_site1_normal_mot_HHH_b1_06789_af2_000000041_0001_1_20_H_._HHH_b1_01475_0001_0000300012_0000001_0 (protein)
chain: SSSSSSDVEEEAEELLEKLEKEGDRAAVFLLEQVLEALRLAGDPKARRILENLIRILEQSSSSSS
B19: il10ra_site1_normal_mot_HHH_b1_05185_000000011_0001_22_39_H_._HHH_b1_00163_0001_0000200007_0000001_0_1_af2pred_0001 (protein)
chain: SSSSSFAERVLRLVRWLFKNNDEEAIELALKAVRDLLKKENDPRIEEILEEIEELLEELRNSSSS
B20: il10ra_site1_normal_mot_8756ee2cf497b5429c717dfc0c0bcfd6_0001_000000186_0001_1_13_H_._HHH_b1_01529_af2_0001_0000100005_0000001_0_af2pred_0001 (protein)
chain: SSSSNELLRRVQELLKEAAELDHEGNPEEAREVLEEARELAEEANNLVARAQVEFLERIVNSSSS
B21: il10ra_site1_sap_26_mot_HHH_b1_06975_af2_000000094_0001_42_56_H_._HHH_b2_02745_0001_0000200022_0000002_0_0001 (protein)
chain: SSSSSVNQRVQELLRRAFQLIREGNPEEAHELLEEIEELVEEHKNWILRYSLEALEIALRGSSSS
B22: il10ra_site1_sap_13_mot_HHH_b2_07442_000000239_0001_40_54_H_._1817edcbb30e3b4d8c1983a6c7bdefe8_0001_0001_0000400007_0000001_0_0001 (protein)
chain: SSSDDSQRVYELLREAVEALHEGDREEAEKILEEAEELVKENNNVALQMQIEFLERAIERLSSSS
B23: il10ra_site1_normal_mot_HHH_b2_03565_000000130_0001_23_39_H_._HHH_b1_02077_0001_0000100002_0000001_0_af2pred_0001 (protein)
chain: SSSSDDEEFIRLSLRFAEWLLEQGDPEAAELVLRVAERLARELGDEELLEEVERLLEELESSSSS
B24: il10ra_site1_sap_23_mot_0aa80e4383ff73b96d266796d974ca63_0001_000000257_0001_1_11_H_._HHH_b2_04732_af2_0001_0000300010_0000001_0_0001_1 (protein)
chain: SSSSDEEEKELEKLLEEAEELGNEAAFAIARLALHLLRLGRIDEEYFEIAERFIRSALNKSSSSS

The binders below were run against il10ra, Q13651 (assay: yeast display titration).

Apparent Kd, inactive:
B1 no binding seen
B2 > 959 nM
B3 no binding seen
B4 no binding seen
B5 no binding seen
B6 no binding seen
B7 > 1500 nM
B8 no binding seen
B9 no binding seen
B10 no binding seen
B11 no binding seen
B12 no binding seen
B13 no binding seen
B14 no binding seen
B15 no binding seen
B16 no binding seen
B17 no binding seen
B18 no binding seen
B19 no binding seen
B20 no binding seen
B21 no binding seen
B22 no binding seen
B23 no binding seen
B24 no binding seen

Two successive entries already listed:
Apparent Kd, inactive:
B6 no binding seen
B7 > 1500 nM
